Measurements as given in PubChem BioAssay AID2685 (National Center for Advancing Translational Sciences (NCATS), 2010).
The list shows a part of the results. The main result of the screen is listed elsewhere. These columns were measured beside it and carry no call. The list favours compounds with an active or inconclusive main result. Potencies come from curve fits of mixed quality, noted in brackets.

Test: qHTS Assay for Lipid Storage Modulators in Drosophila S3 Cells;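 for cell number change: cells counted by Cell Tracker Red CMTPX staining in the red channel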
Conditions: BODIPY lipid droplet fluorescence, 18-24 h; for cell number change: measured here: cell count max response, cells fed with added oleic acid
Procedure, shortened: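 Drosophila S3 cells loaded with oleic acid (400 uM, as added) and compounds at several concentrations; lipid droplets imaged by 488-nm laser-scanning cytometry, 500–530 nm intensity and object ratio to cell channel. Percent activity normalized to 20 uM Triacsin C.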

[1] = measured here: cell number channel AC50, cells fed with added oleic acid
[2] = measured here: lipid fluorescence (Fed channel) AC50, cells fed with added oleic acid

Structure (SMILES): O=C(Nc1cccc(NC(=O)c2cccc(Cl)c2)c1)c1cccnc1
- cell number change: 1.32%

Structure (SMILES): Cc1onc(-c2c(F)cccc2Cl)c1C(=O)OCc1cnc(Cl)s1
- cell number change: 23.9%
- AC50 [1]: 0.00461 µM [rising, full curve, poor fit]

Structure (SMILES): COC(=O)Oc1ccc(/C=C/C(=O)OC(C)C)cc1OC(=O)OC
- cell number change: -19.6%
- AC50 [1]: 1.3 µM [rising, partial curve]
- AC50 [2]: 2.91 µM [rising, partial curve]

Structure (SMILES): Cc1cc(C)c(NC(=O)CSc2nnc(-c3ccco3)n2N)c(C)c1
- cell number change: 13.8%
- AC50 [2]: 0.651 µM [rising, full curve]

Structure (SMILES): CCCN(CCC)c1nc2c(C)cccn2c(=O)c1/C=C1/SC(=S)N(Cc2ccco2)C1=O
- cell number change: 167%
- AC50 [1]: 0.58 µM [rising, partial curve, poor fit]
- AC50 [2]: 0.651 µM [rising, full curve]

Structure (SMILES): Cc1onc(-c2ccccc2)c1C(=O)NC(C)CCc1ccccc1 (stereo unspecified)
- cell number change: 38.2%
- AC50 [1]: 0.13 µM [rising, full curve, poor fit]

Structure (SMILES): Cc1ccc(C(C(=O)NC2CCCCC2)N(Cc2ccco2)C(=O)Cc2c[nH]c3ccccc23)o1 (stereo unspecified)
- cell number change: -53.8%
- AC50 [1]: 14.6 µM [falling, partial curve, poor fit]
- AC50 [2]: 5.17 µM [falling, single point]

Structure (SMILES): O=C1C=C(Nc2cccc3cccnc23)c2ccccc2C1=O
- cell number change: -49.9%
- AC50 [1]: 7.31 µM [falling, partial curve]
- AC50 [2]: 29.1 µM [falling, single point]

Structure (SMILES): COCCCNC(=S)N(CCCO)Cc1cc2cc3c(cc2[nH]c1=O)OCCO3
- cell number change: -8.45%
- AC50 [2]: 29.1 µM [rising, single point]

Structure (SMILES): CCOC(=O)N1CCC(NC(=O)Cc2ccccc2)CC1
- cell number change: 7.27%
- AC50 [2]: 1.64 µM [rising, partial curve]

Structure (SMILES): O=C(/C=C/c1ccccc1)NNC(=O)C1CC1
- cell number change: -32%
- AC50 [1]: 2.06 µM [falling, full curve]
- AC50 [2]: 2.59 µM [falling, full curve, poor fit]

Structure (SMILES): CC(/C=C1\SC(=S)N(CCC(=O)Nc2cccc(C(=O)O)c2)C1=O)=C\c1ccccc1
- cell number change: -17.9%
- AC50 [2]: 0.231 µM [rising, full curve]

Structure (SMILES): COC(=O)c1cc(OC)c(OC)cc1NC(=S)NC(=O)c1ccco1
- AC50 [2]: 29.1 µM [falling, single point]

Structure (SMILES): O=C(Nc1ccc(Cl)c(Cl)c1)NC1CCS(=O)(=O)C1 (stereo unspecified)
- cell number change: 9.21%

Structure (SMILES): COc1ccc(C2C(C(C)=O)=C(O)C(=O)N2CCc2c[nH]c3ccccc23)cc1OC (stereo unspecified)
- cell number change: -17.7%
- AC50 [2]: 2.31 µM [falling, partial curve, poor fit]

Structure (SMILES): CCOC(=O)Cc1csc(NC(=O)CCCc2ccccc2)n1
- cell number change: -16.1%
- AC50 [2]: 0.651 µM [rising, single point]

Structure (SMILES): Cc1cc(NC(=O)CSc2nnc3c(C)cc4ccccc4n23)no1
- cell number change: -0.752%
- AC50 [2]: 29.1 µM [rising, single point]

Structure (SMILES): CCc1ccccc1OCC(=O)Nc1nc(-c2cccnc2)cs1
- AC50 [2]: 0.58 µM [falling, single point]

Structure (SMILES): COC(=O)[C@H](C)NC(=O)Nc1ccc(Oc2ccccc2)cc1
- cell number change: 4.1%
- AC50 [2]: 5.17 µM [falling, single point]

Structure (SMILES): COc1ccc(C2(C)NC(=O)N(CC(=O)NCCC3=CCCCC3)C2=O)cc1OC (stereo unspecified)
- cell number change: 22.2%

Structure (SMILES): Cc1cc(C)n(-c2cc(Oc3ccccc3)ncn2)n1
- cell number change: -6.03%
- AC50 [1]: 3.26 µM [rising, single point]

Structure (SMILES): c1ccc(-c2cc(N3CCOCC3)nc3ccccc23)cc1
- cell number change: 85.1%
- AC50 [1]: 23.1 µM [rising, single point]
- AC50 [2]: 2.91 µM [falling, single point]

Structure (SMILES): O=C(CN1C(=O)NC2(CCCC2)C1=O)OCCOc1ccc(Br)cc1
- cell number change: -11.9%
- AC50 [2]: 29.1 µM [falling, single point]

Structure (SMILES): CCOc1ccc(CCNC(=O)Cn2ccc3ccccc3c2=O)cc1OCC
- cell number change: -17.1%
- AC50 [2]: 25.9 µM [falling, partial curve]

Structure (SMILES): O=C(O)c1ccc(Cl)c(S(=O)(=O)NCc2ccco2)c1
- cell number change: -20.9%
- AC50 [2]: 0.731 µM [falling, full curve]

Structure (SMILES): O=C(CC1CC2CCC1C2)Nc1nc(-c2ccccn2)cs1 (stereo unspecified)
- cell number change: -6.56%
- AC50 [2]: 0.0058 µM [rising, full curve, poor fit]

Structure (SMILES): CC(=O)NCC(=O)OCC(=O)c1ccc(Cl)cc1
- cell number change: 19.7%

Structure (SMILES): CCOc1ccc(CN2CCNC(=O)C2CC(=O)OC)cc1 (stereo unspecified)
- cell number change: 16.5%

Structure (SMILES): COc1ccc(-c2ccc(C(C)=O)cc2)cc1[C@H]1[C@H]2C=CC[C@@H](C)[C@@H]2C(=O)N1Cc1ccccc1
- cell number change: 22.8%
- AC50 [2]: 29.1 µM [rising, single point]

Structure (SMILES): Cc1cc(N2CCN(C(=O)c3cccs3)CC2)c(F)cc1[N+](=O)[O-]
- cell number change: -16.8%
- AC50 [2]: 11.6 µM [falling, single point]

Structure (SMILES): O=c1oc2c(CN3CCOCC3)c(O)c(Cl)cc2c2c1CCC2
- cell number change: -26.5%

Structure (SMILES): Cc1cccc(N2CCN(CC(=O)NCc3ccc(Cl)cc3)CC2)c1C
- cell number change: -34.7%
- AC50 [1]: 14.6 µM [falling, single point]
- AC50 [2]: 11.6 µM [falling, partial curve]

Structure (SMILES): O=C(NC1CCCCC1)c1ccc([N+](=O)[O-])o1
- cell number change: -6.35%

Structure (SMILES): COC(=O)CNc1c(-c2ccccn2)nc2ccc(Br)cn12
- cell number change: 140%
- AC50 [1]: 6.51 µM [rising, partial curve]
- AC50 [2]: 6.51 µM [rising, partial curve]

Structure (SMILES): CCc1noc(C)c1C(=O)N1CCN(S(=O)(=O)c2ccc(C(C)=O)cc2)CC1
- cell number change: 5.34%
- AC50 [2]: 1.3 µM [falling, full curve, poor fit]

Structure (SMILES): Cc1c(S(=O)(=O)N2CCN(c3ccc(F)cc3)CC2)c(=O)n(C)c(=O)n1C
- cell number change: -9.68%
- AC50 [2]: 4.11 µM [falling, full curve, poor fit]

Structure (SMILES): CC1Cc2cc(S(=O)(=O)N3CCCCC3C)ccc2N1C(=O)C1CCC1 (stereo unspecified)
- cell number change: 9.16%
- AC50 [2]: 29.1 µM [rising, partial curve]

Structure (SMILES): CCCOc1ccc(/C=N/Nc2cccc([N+](=O)[O-])c2)c(O)c1
- cell number change: -34.1%
- AC50 [1]: 32.6 µM [falling, single point]

Structure (SMILES): Cc1cccnc1NC(=O)C1CCN(S(=O)(=O)c2c(C)noc2/C=C/c2ccco2)CC1
- cell number change: -1.49%
